From ChEMBL document CHEMBL4387708, “Enhancement of Benzothiazoles as Pteridine Reductase-1 Inhibitors for the Treatment of Trypanosomatidic Infections” (J Med Chem, 2019)
pIC50: −log10 of the molar value.

By UniProt entry, the sequences of proteins in these tests, tags left out.
UniProt P11712, whole entry: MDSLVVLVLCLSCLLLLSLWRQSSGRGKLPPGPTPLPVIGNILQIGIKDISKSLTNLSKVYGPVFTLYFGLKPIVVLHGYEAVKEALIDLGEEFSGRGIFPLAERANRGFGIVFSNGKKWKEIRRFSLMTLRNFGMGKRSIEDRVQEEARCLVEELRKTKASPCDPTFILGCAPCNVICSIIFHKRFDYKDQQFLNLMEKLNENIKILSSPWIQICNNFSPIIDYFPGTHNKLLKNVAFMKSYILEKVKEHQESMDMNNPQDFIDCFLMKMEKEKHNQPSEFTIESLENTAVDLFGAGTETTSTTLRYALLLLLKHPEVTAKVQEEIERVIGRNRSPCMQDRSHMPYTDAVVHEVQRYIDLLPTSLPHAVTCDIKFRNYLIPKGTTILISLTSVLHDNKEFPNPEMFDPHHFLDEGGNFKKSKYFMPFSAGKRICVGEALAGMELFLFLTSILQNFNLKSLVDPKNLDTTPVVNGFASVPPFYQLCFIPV
UniProt P33261, whole entry: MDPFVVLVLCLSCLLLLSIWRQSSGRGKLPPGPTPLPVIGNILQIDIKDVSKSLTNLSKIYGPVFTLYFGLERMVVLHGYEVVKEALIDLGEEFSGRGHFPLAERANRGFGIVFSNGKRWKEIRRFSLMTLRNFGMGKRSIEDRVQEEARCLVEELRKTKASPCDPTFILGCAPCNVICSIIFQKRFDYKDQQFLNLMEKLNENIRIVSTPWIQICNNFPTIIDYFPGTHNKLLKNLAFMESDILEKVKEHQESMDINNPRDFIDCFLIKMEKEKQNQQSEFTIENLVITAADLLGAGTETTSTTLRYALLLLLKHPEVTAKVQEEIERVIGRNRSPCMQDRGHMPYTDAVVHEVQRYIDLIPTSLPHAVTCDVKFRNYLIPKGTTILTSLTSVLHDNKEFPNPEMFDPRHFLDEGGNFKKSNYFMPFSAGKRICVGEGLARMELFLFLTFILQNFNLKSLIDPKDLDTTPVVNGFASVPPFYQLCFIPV
UniProt P10635, whole entry: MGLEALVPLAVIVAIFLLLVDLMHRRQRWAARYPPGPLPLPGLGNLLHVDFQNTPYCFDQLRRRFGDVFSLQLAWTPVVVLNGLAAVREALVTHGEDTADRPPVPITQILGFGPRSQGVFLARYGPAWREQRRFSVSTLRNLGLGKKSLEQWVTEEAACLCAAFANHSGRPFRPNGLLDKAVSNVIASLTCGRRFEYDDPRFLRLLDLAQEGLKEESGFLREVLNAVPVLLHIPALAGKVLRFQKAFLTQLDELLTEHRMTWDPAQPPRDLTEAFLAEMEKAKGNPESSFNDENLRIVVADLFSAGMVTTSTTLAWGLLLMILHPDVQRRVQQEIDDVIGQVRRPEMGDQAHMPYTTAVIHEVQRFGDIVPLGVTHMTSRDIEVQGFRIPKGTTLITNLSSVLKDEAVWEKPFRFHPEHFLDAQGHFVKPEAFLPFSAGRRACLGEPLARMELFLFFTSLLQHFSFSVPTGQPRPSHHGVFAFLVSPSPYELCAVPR

Legend:
Cytochrome P450 2C9 = Cytochrome P450 2C9 (Homo sapiens, UniProt P11712); assay: Inhibition of human CYP2C9 expressed in baculovirus infected insect cells using beetle D-luciferin as substrate preincubated for 30 mins followed by NADPH addition and measured after 30 mins by CYP450-Glo assay
Cytochrome P450 2C19 = Cytochrome P450 2C19 (Homo sapiens, UniProt P33261); assay: Inhibition of human CYP2C19 expressed in baculovirus infected insect cells using beetle D-luciferin as substrate preincubated for 30 mins followed by NADPH addition and measured after 30 mins by CYP450-Glo assay
Cytochrome P450 2D6 = Cytochrome P450 2D6 (Homo sapiens, UniProt P10635); assay: Inhibition of human CYP2D6 expressed in baculovirus infected insect cells using beetle D-luciferin as substrate preincubated for 30 mins followed by NADPH addition and measured after 30 mins by CYP450-Glo assay

Measured: pIC50

Nc1nc2ccc(OC(F)(F)F)cc2s1 [RILUZOLE]
< 4.60: all assays above
